Test results published in paper PMC7862700.
The entries are a selection whose mix differs from that of the whole data set. For part of these data: At the low end of the ranking, values are background and their order means little. The list shows a part of the results. For part of these data: Construct or isoform of the protein are uncertain.

Chains of the proteins cited; added tags and fusions are not shown. Lines headed by an entry give the natural chain unless they say otherwise; changes in a name come on top.
UniProt P50549: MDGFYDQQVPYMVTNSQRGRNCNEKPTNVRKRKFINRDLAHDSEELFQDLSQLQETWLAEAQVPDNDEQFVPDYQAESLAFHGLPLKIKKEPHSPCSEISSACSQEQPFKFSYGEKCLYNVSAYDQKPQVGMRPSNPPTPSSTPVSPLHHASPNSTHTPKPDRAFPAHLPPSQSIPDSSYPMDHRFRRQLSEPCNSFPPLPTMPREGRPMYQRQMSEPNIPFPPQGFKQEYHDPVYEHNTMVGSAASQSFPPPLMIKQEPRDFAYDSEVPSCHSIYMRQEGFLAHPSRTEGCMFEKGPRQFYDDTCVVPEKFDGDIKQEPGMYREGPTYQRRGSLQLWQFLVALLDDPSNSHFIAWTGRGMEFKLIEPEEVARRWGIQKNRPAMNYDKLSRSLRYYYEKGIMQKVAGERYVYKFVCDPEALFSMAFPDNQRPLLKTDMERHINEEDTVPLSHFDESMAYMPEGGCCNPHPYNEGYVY
UniProt P32519: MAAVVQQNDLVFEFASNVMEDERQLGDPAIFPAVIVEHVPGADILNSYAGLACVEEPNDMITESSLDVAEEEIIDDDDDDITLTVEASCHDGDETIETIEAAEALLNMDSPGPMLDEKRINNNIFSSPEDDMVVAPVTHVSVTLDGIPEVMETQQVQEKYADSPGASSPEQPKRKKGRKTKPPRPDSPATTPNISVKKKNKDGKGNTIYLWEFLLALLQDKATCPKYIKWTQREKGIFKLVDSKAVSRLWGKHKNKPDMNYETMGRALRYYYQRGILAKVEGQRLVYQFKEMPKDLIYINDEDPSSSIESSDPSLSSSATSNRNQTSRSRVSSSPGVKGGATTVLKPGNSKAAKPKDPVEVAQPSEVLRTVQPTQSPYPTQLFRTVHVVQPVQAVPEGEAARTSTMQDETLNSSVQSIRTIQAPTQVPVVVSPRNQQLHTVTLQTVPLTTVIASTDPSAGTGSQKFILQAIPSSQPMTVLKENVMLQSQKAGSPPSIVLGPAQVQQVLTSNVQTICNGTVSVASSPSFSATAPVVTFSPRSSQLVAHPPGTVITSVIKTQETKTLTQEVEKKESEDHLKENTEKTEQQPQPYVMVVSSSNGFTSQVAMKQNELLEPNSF

Key:
Test in all cases: DAPPL (digital affinity profiling via proximity ligation, sequencing)
Conditions in all cases: 10 mM Tris-HCl pH 7.5, 50 mM NaCl, 1 mM DTT, 4% glycerol, room temperature, 30 min; GST-TFs on glutathione beads, 16-mer random dsDNA library, 0.1% …; high values mean tight binding; double strand, one strand shown; scale: fold enrichment (6-mer frequency, TF over GST control)
ETV4 = biological target: T1, ETV4 (UniProt P43268)
T1 sequence: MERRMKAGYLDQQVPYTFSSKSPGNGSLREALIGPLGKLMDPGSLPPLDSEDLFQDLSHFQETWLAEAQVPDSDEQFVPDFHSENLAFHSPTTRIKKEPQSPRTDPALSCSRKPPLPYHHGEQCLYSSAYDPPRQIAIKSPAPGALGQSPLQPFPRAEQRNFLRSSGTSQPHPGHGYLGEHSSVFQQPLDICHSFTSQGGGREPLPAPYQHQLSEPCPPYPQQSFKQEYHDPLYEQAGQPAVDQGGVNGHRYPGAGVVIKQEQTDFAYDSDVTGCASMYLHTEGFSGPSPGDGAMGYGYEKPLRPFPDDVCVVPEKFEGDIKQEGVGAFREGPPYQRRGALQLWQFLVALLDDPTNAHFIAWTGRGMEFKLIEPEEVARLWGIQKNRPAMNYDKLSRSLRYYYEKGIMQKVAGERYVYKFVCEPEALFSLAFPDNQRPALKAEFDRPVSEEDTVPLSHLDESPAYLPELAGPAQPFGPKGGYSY

ETV1 = ETV1 (UniProt P50549)
ERF = biological target: T2, ERF (UniProt P50548)
T2 sequence: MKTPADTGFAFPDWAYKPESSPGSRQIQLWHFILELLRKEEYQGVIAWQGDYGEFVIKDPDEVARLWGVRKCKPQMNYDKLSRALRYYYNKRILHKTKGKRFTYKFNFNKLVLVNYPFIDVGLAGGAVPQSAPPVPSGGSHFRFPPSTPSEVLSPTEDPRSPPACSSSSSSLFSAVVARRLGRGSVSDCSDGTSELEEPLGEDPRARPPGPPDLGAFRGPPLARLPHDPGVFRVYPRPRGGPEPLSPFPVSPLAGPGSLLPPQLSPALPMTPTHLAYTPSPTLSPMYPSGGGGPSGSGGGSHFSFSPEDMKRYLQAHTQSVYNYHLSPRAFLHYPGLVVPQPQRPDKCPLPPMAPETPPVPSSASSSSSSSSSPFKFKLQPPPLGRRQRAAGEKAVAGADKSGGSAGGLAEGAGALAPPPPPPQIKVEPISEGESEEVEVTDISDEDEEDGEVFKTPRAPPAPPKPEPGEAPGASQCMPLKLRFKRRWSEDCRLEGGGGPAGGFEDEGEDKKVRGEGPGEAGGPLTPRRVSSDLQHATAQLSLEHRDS

ELF1 = ELF1 (UniProt P32519)

Sequence | binding signal (ETV4) | binding signal (ETV1) | binding signal (ERF) | binding signal (ELF1)
AAAAGC | 1.2 | 1.19 | 1.15 | –
GACCTG | 1.29 | 1.21 | – | –
TCGCTA | 1.04 | 1.08 | – | –
GCCGAC | 1.1 | 1.04 | – | –
CTGCCG | 1.31 | 1.34 | – | –
TCACAC | 1.37 | 1.33 | – | –
CCAATG | 1.15 | 1.06 | – | –
GGTATT | 1.12 | 1.16 | – | –
GCTCCA | 1.17 | 1.12 | – | –
TATCAG | 1.14 | 1.14 | – | –
TGAACT | 1.19 | 1.24 | – | –
CTCCTT | 1.78 | 1.69 | 1.86 | –
CTTCAA | 1.33 | 1.36 | – | –
TACTTT | 1.34 | 1.39 | – | –
GAATCC | 1.15 | 1.13 | – | –
AGCTAA | 1.15 | 1.1 | – | –
CTCAAC | 1.31 | 1.24 | 1.15 | –
TACTGG | 1.09 | 0.988 | – | –
TGCAAC | 1.4 | 1.4 | 1.31 | –
ACAATC | 1.14 | 1.16 | – | –
TTATTT | 1.31 | 1.52 | – | –

Two entries from above, tab-delimited:
Sequence	binding signal (ETV4)	binding signal (ETV1)	binding signal (ERF)	binding signal (ELF1)
CTCCTT	1.78	1.69	1.86	–
CTTCAA	1.33	1.36	–	–

Following part:

Sequence | binding signal (ETV4) | binding signal (ETV1) | binding signal (ERF) | binding signal (ELF1)
TTCTTC | 1.87 | 1.9 | 1.78 | –
AGCTTC | 1.75 | 1.62 | – | –
CTCCTG | 1.67 | 1.79 | – | –
CCTCTT | 1.65 | 1.55 | 1.59 | –
TTAGTA | 1.11 | 1.11 | – | –
TTGCCT | 1.25 | 1.37 | – | –
GCGTTC | 1.11 | 1.28 | – | –
AATCGA | 0.967 | 0.989 | 0.963 | –
CATTTC | 1.8 | 1.84 | – | –
CTTGTG | 1.51 | 1.44 | – | –
GGTCTT | 1.23 | 1.11 | – | –
TTAGAA | 1.05 | 1.11 | – | –
AATGAT | 1.14 | 1.07 | 1.18 | –
AGTATC | 1.07 | 1.07 | – | –
AATGCT | 1.26 | 1.24 | – | 1.16
TATGGT | 1.32 | 1.27 | 1.18 | –
CAAGGT | 1.02 | 1.13 | 0.954 | –
TGTGGA | 1.07 | 1.03 | – | 1.11
CTGCAC | 1.21 | 1.13 | 1.11 | –
CCATGC | 1.04 | 0.949 | 1.01 | –
TTCGAA | 1.12 | 1.1 | – | 1.28
